# Measured values: PubChem BioAssay AID328 (DTP/NCI, 2004)
# The list does not hold the whole screen: it gathers tests that were run many times, whatever their T/C, doses with no T/C, and many T/C values between a quarter and a half above the control. Other doses and runs of a compound stand elsewhere. T/C: endpoint of the treated group in % of that of the vehicle group. Some doses have a count of surviving animals in place of a T/C: the source holds a T/C of zero for them, seemingly a mark for toxic or unscored doses. Some survivor counts are full or nearly so, which does not show that the dose was tolerated: survival well below the control is almost never listed, so the zero probably covers shortened survival too. Counts of survivors are from the toxicity check (mostly the fifth day) where no day follows; animals may have died later. Schedule codes are those of the source, taken here to give the interval after Q, in days (D) or hours (H), and the number of doses after X. Some molecules as drawn cover several salts, stereoisomers or complexes of the source; a dose is that of the sample tested. Brackets with × count equal records among those shown. Some doses were run more than once; the values are given in rising order. Where survival is the endpoint, the PubChem record calls one and a half times the control and up active, and a quarter to a half above the control has no call in these data; cut-offs in other NCI protocols can differ. Some T/C values are followed by the survivors on the day toxicity was checked, most often the fifth; where none is given, no animal had died by that day.
# System: BDF1 mice, P388 leukemia ip, median survival T/C
# Experiment: NCI In Vivo Anticancer Drug Screen. Data for tumor model P388 Leukemia (intraperitoneal) in B6D2F1 (BDF1) mice
# Details: T/C endpoint: median survival time, higher T/C = longer survival
# Procedure, shortened: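 Vehicle-dosed animals serve as the reference; survival of compound-dosed, tumour-implanted mice is divided by it.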
# [1] = dose: 100.0 mg/kg/injection, schedule: Q01DX009 (ip), vehicle: saline
# [2] = dose: 200.0 mg/kg/injection, schedule: Q04DX003 (ip), vehicle: saline
# [3] = dose: 400.0 mg/kg/injection, schedule: Q04DX003 (ip), vehicle: saline
# [4] = dose: 200.0 mg/kg/injection, schedule: Q01DX009 (ip), vehicle: saline
# [5] = dose: 400.0 mg/kg/injection, schedule: Q01DX009 (ip), vehicle: saline
# [6] = dose: 200.0 mg/kg/injection, schedule: Q01DX009 (ip), vehicle: saline with Tween-80
# [7] = dose: 100.0 mg/kg/injection, schedule: Q04DX003 (ip), vehicle: saline with Tween-80
# [8] = dose: 400.0 mg/kg/injection, schedule: Q04DX003 (ip), vehicle: saline with Tween-80
# [9] = dose: 100.0 mg/kg/injection, schedule: Q01DX009 (ip), vehicle: saline with Tween-80
# [10] = dose: 200.0 mg/kg/injection, schedule: Q01DX009 (ip), vehicle: water
# [11] = dose: 400.0 mg/kg/injection, schedule: Q01DX009 (ip), vehicle: water
# [12] = dose: 300.0 mg/kg/injection, schedule: Q01DX009 (ip), vehicle: saline with Tween-80
# [13] = dose: 400.0 mg/kg/injection, schedule: Q01DX009 (ip), vehicle: Klucel (hydroxypropylcellulose) (HPC)
smiles,measurement,setting,value
C[n+]1ccc(Nc2ccc(NC(=O)c3ccc(Nc4cc[n+](C)c5ccc(N)cc45)cc3N)cc2)cc1,T/C,"dose: 0.39 mg/kg/injection, schedule: Q01DX009 (ip), vehicle: Klucel (hydroxypropylcellulose) (HPC)",138 % of control
same,T/C,"dose: 0.78 mg/kg/injection, schedule: Q01DX009 (ip), vehicle: Klucel (hydroxypropylcellulose) (HPC)",135 % of control [5 of 6 alive]
same,T/C,"dose: 1.0 mg/kg/injection, schedule: Q01DX009 (ip), vehicle: saline with Tween-80",141 % of control
same,T/C,"dose: 1.32 mg/kg/injection, schedule: Q04DX003 (ip), vehicle: saline with Tween-80",133 % of control
same,T/C,"dose: 2.0 mg/kg/injection, schedule: Q04DX003 (ip), vehicle: saline with Tween-80",142 % of control
same,T/C,"dose: 2.4 mg/kg/injection, schedule: Q04DX003 (ip), vehicle: saline with Tween-80",145 % of control
same,T/C,"dose: 6.25 mg/kg/injection, schedule: Q04DX003 (ip), vehicle: saline",149 % of control
same,T/C,"dose: 18.7 mg/kg/injection, schedule: Q04DX003 (ip), vehicle: saline",127 % of control
same,T/C,"dose: 25.0 mg/kg/injection, schedule: Q01DX009 (ip), vehicle: Klucel (hydroxypropylcellulose) (HPC)",131 % of control
same,T/C,"dose: 25.0 mg/kg/injection, schedule: Q01DX010 (ip), vehicle: saline",140 % of control
same,survivor count,"dose: 50.0 mg/kg/injection, schedule: Q01DX009 (ip), vehicle: Klucel (hydroxypropylcellulose) (HPC)",2 of 6 and 3 of 6
same,survivor count,"dose: 100.0 mg/kg/injection, schedule: Q01DX009 (ip), vehicle: Klucel (hydroxypropylcellulose) (HPC)",4 of 6
same,survivor count,[1],5 of 6
same,survivor count,"dose: 100.0 mg/kg/injection, schedule: Q01DX010 (ip), vehicle: saline",1 of 6
same,survivor count,"dose: 100.0 mg/kg/injection, schedule: Q04DX003 (ip), vehicle: saline",1 of 6 (2×)
same,survivor count,[2],0 of 6
same,survivor count,[3],0 of 6
S=C(S)NCCNC(=S)S,T/C,"dose: 75.0 mg/kg/injection, schedule: Q01DX009 (ip), vehicle: saline",125 % of control
same,T/C,"dose: 132.0 mg/kg/injection, schedule: Q01DX009 (ip), vehicle: saline",141 % of control
same,T/C,"dose: 135.0 mg/kg/injection, schedule: Q04DX003 (ip), vehicle: saline",145 % of control
same,T/C,[4],125 % of control
same,survivor count,[4],6 of 6
same,T/C,[2],"100, 109, 127, 145 % of control"
same,survivor count,"dose: 265.0 mg/kg/injection, schedule: Q01DX009 (ip), vehicle: saline",5 of 6
same,T/C,[5],130 % of control
S=C1NC2=C(CCC/C2=C\c2ccccc2)C(c2ccccc2)N1 (stereo unspecified),survivor count,[6],6 of 6
COc1ccc2c(c1O)-c1cccc3c1[C@@H](C2)N(CCCl)CC3,T/C,"dose: 12.5 mg/kg/injection, schedule: Q04DX003 (ip), vehicle: saline with Tween-80",127 % of control
same,survivor count,[7],6 of 6
same,survivor count,"dose: 200.0 mg/kg/injection, schedule: Q04DX003 (ip), vehicle: saline with Tween-80",1 of 6
same,survivor count,[8],0 of 6
CCOC(=O)C1CC(=O)c2ccccc2C1 (stereo unspecified),survivor count,"dose: 25.0 mg/kg/injection, schedule: Q01DX009 (ip), vehicle: other",6 of 6
same,survivor count,"dose: 50.0 mg/kg/injection, schedule: Q01DX009 (ip), vehicle: other",6 of 6
O=C1CCCCCC1Cc1cc(O)c(CC2CCCCCC2=O)cc1O (stereo unspecified),T/C,[9],128 % of control
O=NN(CCF)C(=O)Oc1cc(Cl)c(Cl)cc1Cl,T/C,"dose: 12.5 mg/kg/injection, schedule: Q01DX001 (ip), vehicle: saline with Tween-80",139 % of control
same,T/C,"dose: 25.0 mg/kg/injection, schedule: Q01DX001 (ip), vehicle: saline with Tween-80",147 % of control
same,survivor count,"dose: 50.0 mg/kg/injection, schedule: Q01DX001 (ip), vehicle: saline with Tween-80",3 of 6
same,survivor count,"dose: 100.0 mg/kg/injection, schedule: Q01DX001 (ip), vehicle: saline with Tween-80",0 of 6
O=C1NC(=O)C(c2cccs2)(c2cccs2)N1,survivor count,"dose: 50.0 mg/kg/injection, schedule: Q01DX009 (ip), vehicle: water",2 of 6
same,survivor count,[10],3 of 6
same,survivor count,[11],0 of 6
same,survivor count,"dose: 400.0 mg/kg/injection, schedule: Q04DX003 (ip), vehicle: water",1 of 6
Cc1cc(C)c2nccc(/C=C/c3ccc(N(C)C)cc3)c2c1,T/C,[6],127 % of control
Cc1c[n+]2ccccc2n1C,survivor count,"dose: 25.0 mg/kg/injection, schedule: Q01DX009 (ip), vehicle: saline",6 of 6
same,survivor count,"dose: 50.0 mg/kg/injection, schedule: Q01DX009 (ip), vehicle: saline",6 of 6
same,survivor count,[1],0 of 6 and 5 of 6
same,survivor count,[4],0 of 6 (2×)
CC(C)(O)/C=C/C(=O)C(C)(O)C1C(O)CC2(C)C3CC=C4C(CC(O)C(O)C4(C)C)C3(C)C(=O)CC12C (stereo unspecified),survivor count,"dose: 4.0 mg/kg/injection, schedule: Q01DX010 (ip), vehicle: carboxymethylcellulose (CMC)",0 of 6
same,survivor count,"dose: 8.0 mg/kg/injection, schedule: Q01DX010 (ip), vehicle: carboxymethylcellulose (CMC)",0 of 6
CN1CCC(COC(=O)CC(C)(C)C)C1 (stereo unspecified),survivor count,[10],0 of 4
same,survivor count,[11],0 of 4
same,survivor count,"dose: 800.0 mg/kg/injection, schedule: Q01DX009 (ip), vehicle: water",0 of 4
same,survivor count,"dose: 1400.0 mg/kg/injection, schedule: Q01DX009 (ip), vehicle: water",0 of 4
O=C1c2cc3c(cc2CCC1c1ccc2c(c1)OCO2)OCO3 (stereo unspecified),survivor count,"dose: 80.0 mg/kg/injection, schedule: Q01DX009 (ip), vehicle: saline with Tween-80",6 of 6
Brc1ccc(C[N+]23CN4CN(CN(C4)C2)C3)cc1,T/C,[6],125 and 130 % of control
same,T/C,[12],137 % of control
same,survivor count,[12],0 of 6
same,survivor count,[5],1 of 6
same,survivor count,[3],0 of 6
N=C(N)c1ccc(SCCCCCSc2ccc(C(=N)N)cc2)cc1,survivor count,"dose: 50.0 mg/kg/injection, schedule: Q01DX009 (ip), vehicle: saline with Tween-80",0 of 6
same,survivor count,[9],0 of 6
same,survivor count,[6],0 of 6
CCOC(=O)C(Br)C(Br)C(=O)OCC (stereo unspecified),survivor count,[6],1 of 6
COc1ccc(NCCOc2ccccc2Br)cc1,T/C,"dose: 200.0 mg/kg/injection, schedule: Q01DX009 (ip), vehicle: other",127 % of control
C[C@]12CCCC[C@@H]1CC[C@@H]1[C@@H]2[C@@H](O)C[C@]2(C)[C@@H](O)CC[C@@H]12,T/C,[7],127 % of control
Cc1ccc(NCCN2CCCCC2)c2c(=O)c3ccccc3sc12,T/C,[13],125 % of control
same,survivor count,[13],5 of 6
same,T/C,"dose: 400.0 mg/kg/injection, schedule: Q04DX003 (ip), vehicle: Klucel (hydroxypropylcellulose) (HPC)",140 and 145 % of control
CC1(c2cccs2)C(=O)NC(=O)N1C(=O)CCl (stereo unspecified),survivor count,[6],2 of 6
same,survivor count,[8],1 of 6
COc1ccc(C(=O)C(Br)C(Br)C(=O)O)cc1 (stereo unspecified),survivor count,[4],2 of 6
same,survivor count,[2],1 of 6
